Reference: publication PMC4366279 (PLoS ONE, 2015)
Results are given in words; binding and its absence hold for the method and conditions named. Binding seen in cells or lysates may run through a third protein. Some results given as binding are weak or reduced against the parent protein; the word gives no strength.

Tests used:
Experiment in all cases: pull-down; His6-TbREL1 TNT mixture mixed with an equal volume of untagged KREPA2 TNT mixture, captured on magnetic His-tag isolation beads (Dynabeads); binding buffer 50 mM NaPO4 pH 8.0, 300 mM NaCl, 0.01% Tween 20; 20-30 min at 4°C; three washes; [35S]-methionine-labelled proteins on 10% SDS-PAGE, PhosphorImager; KREPA2-only control for background
[1] = target: T1, TbREL1 K443A (Trypanosoma brucei) (UniProt P86926)
T1 sequence (chain, [35S]-methionine labelled): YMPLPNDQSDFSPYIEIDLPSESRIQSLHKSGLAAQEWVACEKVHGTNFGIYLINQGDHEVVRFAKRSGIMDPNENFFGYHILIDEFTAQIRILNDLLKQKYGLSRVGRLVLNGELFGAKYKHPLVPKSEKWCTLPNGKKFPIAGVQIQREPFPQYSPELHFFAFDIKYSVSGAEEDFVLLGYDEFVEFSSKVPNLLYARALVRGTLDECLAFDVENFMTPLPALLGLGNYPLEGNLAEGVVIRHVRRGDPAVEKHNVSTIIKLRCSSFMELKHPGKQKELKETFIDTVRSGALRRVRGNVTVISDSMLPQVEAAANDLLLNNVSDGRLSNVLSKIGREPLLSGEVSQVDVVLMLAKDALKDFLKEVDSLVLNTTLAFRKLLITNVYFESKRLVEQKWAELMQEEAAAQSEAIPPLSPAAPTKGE

[2] = target: T2, TbREL1 S214A (Trypanosoma brucei) (UniProt P86926)
T2 sequence (chain, [35S]-methionine labelled): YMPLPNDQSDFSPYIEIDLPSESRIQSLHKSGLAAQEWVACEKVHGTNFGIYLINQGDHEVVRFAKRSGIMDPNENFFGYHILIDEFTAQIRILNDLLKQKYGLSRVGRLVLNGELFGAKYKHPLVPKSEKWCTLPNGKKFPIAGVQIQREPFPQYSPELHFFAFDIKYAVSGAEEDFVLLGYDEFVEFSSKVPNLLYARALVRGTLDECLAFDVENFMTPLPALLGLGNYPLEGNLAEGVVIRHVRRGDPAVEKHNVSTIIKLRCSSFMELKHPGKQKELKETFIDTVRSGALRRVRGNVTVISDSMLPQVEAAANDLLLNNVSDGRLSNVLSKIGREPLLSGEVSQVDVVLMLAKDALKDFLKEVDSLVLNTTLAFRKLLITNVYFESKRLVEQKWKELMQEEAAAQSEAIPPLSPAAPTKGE

[3] = target: T3, TbREL1 T264A (Trypanosoma brucei) (UniProt P86926)
T3 sequence (chain, [35S]-methionine labelled): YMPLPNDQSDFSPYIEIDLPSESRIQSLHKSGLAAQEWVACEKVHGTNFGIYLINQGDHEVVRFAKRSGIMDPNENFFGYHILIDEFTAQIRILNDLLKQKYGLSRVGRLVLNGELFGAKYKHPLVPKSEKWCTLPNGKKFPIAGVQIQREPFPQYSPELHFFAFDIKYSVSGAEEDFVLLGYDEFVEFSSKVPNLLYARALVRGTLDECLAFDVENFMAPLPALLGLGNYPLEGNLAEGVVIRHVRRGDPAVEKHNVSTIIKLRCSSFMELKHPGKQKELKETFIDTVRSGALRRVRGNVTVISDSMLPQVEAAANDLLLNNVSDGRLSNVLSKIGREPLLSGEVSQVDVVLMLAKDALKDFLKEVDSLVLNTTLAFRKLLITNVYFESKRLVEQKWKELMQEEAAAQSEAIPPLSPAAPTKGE

[4] = target: T4, TbREL1 K424A (Trypanosoma brucei) (UniProt P86926)
T4 sequence (chain, [35S]-methionine labelled): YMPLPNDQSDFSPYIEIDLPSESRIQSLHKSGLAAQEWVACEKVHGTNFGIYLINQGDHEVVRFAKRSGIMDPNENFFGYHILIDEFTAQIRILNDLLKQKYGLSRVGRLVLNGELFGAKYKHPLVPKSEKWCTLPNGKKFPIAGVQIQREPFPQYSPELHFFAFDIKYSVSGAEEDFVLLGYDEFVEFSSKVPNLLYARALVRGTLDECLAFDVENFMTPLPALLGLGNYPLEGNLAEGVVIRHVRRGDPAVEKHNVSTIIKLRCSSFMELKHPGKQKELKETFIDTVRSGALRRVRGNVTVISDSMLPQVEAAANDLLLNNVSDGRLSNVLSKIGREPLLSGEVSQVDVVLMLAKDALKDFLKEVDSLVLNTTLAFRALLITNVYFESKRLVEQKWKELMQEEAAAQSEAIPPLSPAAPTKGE

Measured: binding

B1: KREPA2 (natural protein)
chain: MYRRFFRSAAVKHLGTTSAQCLMRATKYPCGAMCRNASSCHPQTLGYQQRFQSTTDKKFHCSVCKKPFRLEMAAKLHLQQAHGGDGSVEAGPGPGVEASSVNVVSTPVPSPISPVERTFVDEEERRPRRMRPTPKPLHQPDRDIPAAAMEEMLGVWDKIGLNRLEGNFVHSTMVMKVFAAPPDVSEIPLYEHVAPEGENPFDSLDHMTTGTVDATYVGHDAFAEVDLVDPFVAAPDQTLNPFRAGKVRNPFTRISPTQREVVKPLQPPQPKEEPLKAPVTPFGQLPMFGQTREPSASFAAAAVSVQAAANPNEVSSPFAAAVSSSPFVGQVASPFAPAQDVAGSPFEASPCAASSPFVTAGGQETSPFAAPSTPASFGQGSLFPPMGTGAPGFTAITETEQRQQELEHGCPTCGKKFSTFEGAAMHSKSKHGIVLESKKVKDRLNRKGVPDLPAYVPSPVDLSSTSPFGTRSAIGASWAETELIPHAQCVSNITIVGRVLDVSQASENVSHVTVFVEGERSGEEETLTLCCFGEVSQKIRGTLKRNATIFASGTLRLHPVYEASNNKYYVSPVVHVSMPTGTLAVIT
modifications: [35S]-methionine labelled
notes: KREPA2 of T. brucei, the KREPA2 open reading frame, expressed untagged (63 kDa); source: in vitro translated (TNT reticulocyte lysate coupled transcription and translation system, Promega)
binds: [1] | [2] | [3] | [4]
